Laboratory results reported in publication PMC11639775.
Results are given in words; binding and its absence hold for the method and conditions named. Binding seen in cells or lysates may run through a third protein. Some binding calls cover weakened binding; strength is not graded here.

Amino acid sequences for entries named in this document (tags omitted). Residues count along the entry.
UniProt P11362, residues 22-822: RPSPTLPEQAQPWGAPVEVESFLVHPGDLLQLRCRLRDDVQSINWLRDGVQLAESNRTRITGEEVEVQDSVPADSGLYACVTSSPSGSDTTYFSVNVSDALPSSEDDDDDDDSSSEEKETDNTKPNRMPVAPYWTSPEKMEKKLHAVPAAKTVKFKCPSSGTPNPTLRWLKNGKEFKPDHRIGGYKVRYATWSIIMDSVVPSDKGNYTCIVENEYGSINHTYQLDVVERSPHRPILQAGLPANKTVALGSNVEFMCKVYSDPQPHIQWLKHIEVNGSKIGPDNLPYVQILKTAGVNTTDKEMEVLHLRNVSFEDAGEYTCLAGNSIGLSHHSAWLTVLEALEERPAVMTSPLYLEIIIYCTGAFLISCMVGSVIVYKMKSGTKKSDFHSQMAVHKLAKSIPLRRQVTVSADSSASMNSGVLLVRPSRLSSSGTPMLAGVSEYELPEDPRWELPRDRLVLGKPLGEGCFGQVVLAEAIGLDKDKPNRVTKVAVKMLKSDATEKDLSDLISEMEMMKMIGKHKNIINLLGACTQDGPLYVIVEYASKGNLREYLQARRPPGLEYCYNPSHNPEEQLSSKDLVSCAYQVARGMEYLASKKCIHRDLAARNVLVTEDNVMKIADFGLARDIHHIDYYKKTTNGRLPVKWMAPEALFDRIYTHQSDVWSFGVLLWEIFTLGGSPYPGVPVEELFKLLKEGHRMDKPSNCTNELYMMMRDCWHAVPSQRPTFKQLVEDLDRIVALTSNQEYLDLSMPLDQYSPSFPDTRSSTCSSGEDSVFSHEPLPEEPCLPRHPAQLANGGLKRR
UniProt P46934: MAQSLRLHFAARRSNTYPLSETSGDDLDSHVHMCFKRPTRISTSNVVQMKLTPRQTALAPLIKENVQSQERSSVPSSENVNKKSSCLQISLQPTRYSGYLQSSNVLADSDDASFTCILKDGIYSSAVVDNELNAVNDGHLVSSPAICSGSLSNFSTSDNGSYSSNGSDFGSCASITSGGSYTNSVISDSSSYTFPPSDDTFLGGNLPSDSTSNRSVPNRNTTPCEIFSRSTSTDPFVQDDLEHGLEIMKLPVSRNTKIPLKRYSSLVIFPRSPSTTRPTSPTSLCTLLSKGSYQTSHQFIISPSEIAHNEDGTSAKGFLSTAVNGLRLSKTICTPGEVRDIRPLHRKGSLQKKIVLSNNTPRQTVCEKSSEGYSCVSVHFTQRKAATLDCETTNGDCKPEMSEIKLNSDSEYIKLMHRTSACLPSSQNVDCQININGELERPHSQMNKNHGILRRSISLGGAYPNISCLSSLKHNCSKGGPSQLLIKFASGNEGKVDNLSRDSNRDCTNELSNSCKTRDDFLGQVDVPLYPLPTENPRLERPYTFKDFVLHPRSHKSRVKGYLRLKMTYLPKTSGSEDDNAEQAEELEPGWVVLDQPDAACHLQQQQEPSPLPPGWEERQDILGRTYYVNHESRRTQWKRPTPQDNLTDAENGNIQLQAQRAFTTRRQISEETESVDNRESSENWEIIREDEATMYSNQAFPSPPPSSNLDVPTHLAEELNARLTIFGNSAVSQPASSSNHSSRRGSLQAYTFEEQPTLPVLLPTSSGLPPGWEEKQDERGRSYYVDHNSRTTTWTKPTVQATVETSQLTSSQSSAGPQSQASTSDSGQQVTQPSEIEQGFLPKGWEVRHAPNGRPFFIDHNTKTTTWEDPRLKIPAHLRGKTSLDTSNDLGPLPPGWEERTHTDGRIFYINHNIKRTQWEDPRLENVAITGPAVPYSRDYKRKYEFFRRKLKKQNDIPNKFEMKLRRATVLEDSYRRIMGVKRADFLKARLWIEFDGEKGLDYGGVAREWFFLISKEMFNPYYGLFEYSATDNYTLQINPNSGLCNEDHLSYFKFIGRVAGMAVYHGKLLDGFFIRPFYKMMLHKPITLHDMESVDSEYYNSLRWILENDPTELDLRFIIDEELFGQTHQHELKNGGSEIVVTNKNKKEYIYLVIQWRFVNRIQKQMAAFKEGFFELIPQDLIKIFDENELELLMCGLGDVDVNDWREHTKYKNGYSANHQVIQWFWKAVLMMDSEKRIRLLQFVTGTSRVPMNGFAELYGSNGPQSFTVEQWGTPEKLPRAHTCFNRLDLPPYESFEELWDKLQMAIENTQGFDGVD

Target: FGFR1 fused to enhanced green fluorescent protein (FGFR1-EGFP) (UniProt P11362)
Test: co-IP; anti-FGFR1 antibody (1:50) on Dynabeads M-280 sheep anti-rabbit IgG; 500 µg lysate of U251 control cells or U251 cells with SPRY2-OE, transfected with FGFR1-EGFP, untreated or treated 10 min with FGF2 (100 ng/mL) and heparan sulfate (10 µg/mL); IP lysis buffer 50 mM Tris/HCl pH 7.5, 10% glycerol, 150 mM NaCl, 1% Nonidet P-40, 0.25% sodium deoxycholate, 2 mM EDTA; 1 h at 4 °C; Western blot

binding | Molecule
no binding | neural precursor cell-expressed developmentally downregulated protein 4 (NEDD4) (from UniProt P46934 1-1319) (enzyme)
binds | phospholipase Cγ1 (PLCγ1) (enzyme, UniProt P19174 1-1290) MAGAASPCANGCGPGAPSDAEVLHLCRSLEVGTVMTLFYSKKSQRPERKTFQVKLETRQITWSRGADKIEGAIDIREIKEIRPGKTSRDFDRYQEDPAFRPDQSHCFVILYGMEFRLKTLSLQATSEDEVNMWIKGLTWLMEDTLQAPTPLQIERWLRKQFYSVDRNREDRISAKDLKNMLSQVNYRVPNMRFLRERLTDLEQRSGDITYGQFAQLYRSLMYSAQKTMDLPFLEASTLRAGERPELCRVSLPEFQQFLLDYQGELWAVDRLQVQEFMLSFLRDPLREIEEPYFFLDEFVTFLFSKENSVWNSQLDAVCPDTMNNPLSHYWISSSHNTYLTGDQFSSESSLEAYARCLRMGCRCIELDCWDGPDGMPVIYHGHTLTTKIKFSDVLHTIKEHAFVASEYPVILSIEDHCSIAQQRNMAQYFKKVLGDTLLTKPVEISADGLPSPNQLKRKILIKHKKLAEGSAYEEVPTSMMYSENDISNSIKNGILYLEDPVNHEWYPHYFVLTSSKIYYSEETSSDQGNEDEEEPKEVSSSTELHSNEKWFHGKLGAGRDGRHIAERLLTEYCIETGAPDGSFLVRESETFVGDYTLSFWRNGKVQHCRIHSRQDAGTPKFFLTDNLVFDSLYDLITHYQQVPLRCNEFEMRLSEPVPQTNAHESKEWYHASLTRAQAEHMLMRVPRDGAFLVRKRNEPNSYAISFRAEGKIKHCRVQQEGQTVMLGNSEFDSLVDLISYYEKHPLYRKMKLRYPINEEALEKIGTAEPDYGALYEGRNPGFYVEANPMPTFKCAVKALFDYKAQREDELTFIKSAIIQNVEKQEGGWWRGDYGGKKQLWFPSNYVEEMVNPVALEPEREHLDENSPLGDLLRGVLDVPACQIAIRPEGKNNRLFVFSISMASVAHWSLDVAADSQEELQDWVKKIREVAQTADARLTEGKIMERRKKIALELSELVVYCRPVPFDEEKIGTERACYRDMSSFPETKAEKYVNKAKGKKFLQYNRLQLSRIYPKGQRLDSSNYDPLPMWICGSQLVALNFQTPDKPMQMNQALFMTGRHCGYVLQPSTMRDEAFDPFDKSSLRGLEPCAISIEVLGARHLPKNGRGIVCPFVEIEVAGAEYDSTKQKTEFVVDNGLNPVWPAKPFHFQISNPEFAFLRFVVYEEDMFSDQNFLAQATFPVKGLKTGYRAVPLKNNYSEDLELASLLIKIDIFPAKENGDLSPFSGTSLRERGSDASGQLFHGRAREGSFESRYQQPFEDFRISQEHLADHFDSRERRAPRRTRVNGDNRL
